This is a selection; strong and weak results do not stand in their true shares. At the low end of the ranking, values are background and their order means little.
target: T1, ELK1 (UniProt P19419); assay: DAPPL (digital affinity profiling via proximity ligation, sequencing); details: 10 mM Tris-HCl pH 7.5, 50 mM NaCl, 1 mM DTT, 4% glycerol, room temperature, 30 min; GST-TFs on glutathione beads, 16-mer random dsDNA library, 0.1% …; high values mean tight binding; double strand, one strand shown; scale: fold enrichment (6-mer frequency, TF over GST control)
T1 sequence: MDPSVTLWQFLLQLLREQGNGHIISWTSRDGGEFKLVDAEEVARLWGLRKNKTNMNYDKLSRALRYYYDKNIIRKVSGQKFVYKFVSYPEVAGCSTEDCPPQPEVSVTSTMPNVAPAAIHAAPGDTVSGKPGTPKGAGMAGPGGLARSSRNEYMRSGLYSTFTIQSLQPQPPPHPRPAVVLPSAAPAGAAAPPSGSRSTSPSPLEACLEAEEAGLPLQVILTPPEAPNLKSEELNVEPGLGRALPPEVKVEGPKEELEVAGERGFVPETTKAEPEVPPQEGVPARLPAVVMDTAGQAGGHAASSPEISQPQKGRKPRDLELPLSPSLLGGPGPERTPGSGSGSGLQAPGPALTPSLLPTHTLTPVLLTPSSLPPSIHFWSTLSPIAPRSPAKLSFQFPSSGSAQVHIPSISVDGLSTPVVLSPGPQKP

Sequence	binding signal
TTGGGG	1.24
ACCTAT	1.26
TTTGTG	1.2
GTAATG	1.07
GAACTG	0.993
TAGGGC	1.07
CTACTG	1.28
TCATAA	1.05
TCTGGT	1.29
CAGCAC	0.964
GGTAAC	1
GTAGAT	0.975
TAGACT	0.973
CTCGGT	0.978
GAATAT	1.08
CAATCT	1.18
TCGTCT	1.34
GACTAC	1.19
ATTACA	1.13
TGGCGA	1.02

Sequence	binding signal
TCCATG	1.18
AGAAAA	0.934
CGTTCC	1.35
ACCCAC	1.24
GTCCTG	0.96
GTGTCT	0.994
AACGGC	1.13
TGTGGT	0.966
TCTCTT	1.34
TGAAAG	0.995
ATATCT	1.19
GTCGAC	0.987
TGACTG	1.09
TGTTCG	1.1
ATGAAC	1.28
CATTGC	0.985
TTTGTC	1.21
GCATTT	1.38
GTTATA	0.988

target: T2, ELK3 (UniProt P41970); assay: as above; details: 10 mM Tris-HCl pH 7.5, 50 mM NaCl, 1 mM DTT, 4% glycerol, room temperature, 30 min; GST-TFs on glutathione beads, 16-mer random dsDNA library, 0.1% …; high values mean tight binding; double strand, one strand shown; scale: fold enrichment (6-mer frequency, TF over GST control)
T2 sequence: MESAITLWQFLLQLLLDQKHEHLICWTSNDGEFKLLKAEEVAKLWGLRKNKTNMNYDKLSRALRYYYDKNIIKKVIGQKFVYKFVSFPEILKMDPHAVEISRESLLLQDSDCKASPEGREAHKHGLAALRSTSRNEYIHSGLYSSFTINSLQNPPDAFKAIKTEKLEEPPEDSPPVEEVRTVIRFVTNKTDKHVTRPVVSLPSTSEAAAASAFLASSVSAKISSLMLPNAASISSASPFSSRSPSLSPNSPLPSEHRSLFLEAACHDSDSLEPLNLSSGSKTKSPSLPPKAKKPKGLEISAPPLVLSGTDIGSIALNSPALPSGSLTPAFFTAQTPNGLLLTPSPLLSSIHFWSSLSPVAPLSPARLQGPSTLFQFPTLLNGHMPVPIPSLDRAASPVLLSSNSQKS

Sequence	binding signal
TTGGGG	1.31
TTTGTG	1.17
GAACTG	0.87
TAGGGC	0.925
TCATAA	0.986
CAGCAC	0.92
GTAGAT	0.912
TAGACT	0.895
CTCGGT	0.889
GAATAT	1.12
TGGCGA	0.929
TCCATG	1.24
CGTTCC	1.46
GTCCTG	1.05
GTGTCT	0.908
TGTGGT	0.992
TGAAAG	0.87
ATATCT	1.15
GTCGAC	1.06
TGACTG	0.905

target: T3, ETV3 (UniProt P41162-2); assay: as above; details: 10 mM Tris-HCl pH 7.5, 50 mM NaCl, 1 mM DTT, 4% glycerol, room temperature, 30 min; GST-TFs on glutathione beads, 16-mer random dsDNA library, 0.1% …; high values mean tight binding; double strand, one strand shown; scale: fold enrichment (6-mer frequency, TF over GST control)
T3 sequence: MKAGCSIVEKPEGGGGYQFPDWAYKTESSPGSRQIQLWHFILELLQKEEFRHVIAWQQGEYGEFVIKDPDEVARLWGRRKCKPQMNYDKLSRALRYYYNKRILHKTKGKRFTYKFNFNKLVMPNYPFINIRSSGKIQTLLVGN

Sequence	binding signal
TTGGGG	1.13
ACCTAT	1.17
TTTGTG	1.13
GTAATG	0.999
GAACTG	1.09
TAGGGC	1.03
CTACTG	1.16
TCATAA	0.986
TCTGGT	1.29
CAGCAC	0.932
GGTAAC	0.975
GTAGAT	0.922
TAGACT	0.981
CTCGGT	0.983
GAATAT	1.12
CAATCT	1.19
TCGTCT	1.23
GACTAC	1.11
ATTACA	1.04
TGGCGA	0.98

Sequence	binding signal
TCCATG	1.19
AGAAAA	0.964
CGTTCC	1.41
ACCCAC	1.13
GTCCTG	1.2
GTGTCT	1.02
AACGGC	1.29
TGTGGT	0.995
TCTCTT	1.44
TGAAAG	0.966
ATATCT	1.19
GTCGAC	0.971
TGACTG	0.957
TGTTCG	1.01
ATGAAC	1.28
CATTGC	0.938
TTTGTC	1.29
GCATTT	1.36
GTTATA	0.987
